Among all 400,000 compounds or so, about 13,000 (3.2%) were called active. This list was built around the results that the source calls inconclusive (neither active nor inactive); the mix of calls is not that of the screen. The call rests on the fitted dose curve; in most records, active means well fitted cell-killing curve with a large enough effect; inconclusive means small, poorly fitted or top-dose-only effect, or effect the other way; inactive means flat fitted curve, though single readings scatter. Potencies of inconclusive entries are doubtful fits and often do not repeat.
Experiment: qHTS assay for MDR1-selective chemotherapeutics: Primary screen using the drug-selected MDR subline cells KB-V1; further: nearly all actives have a fitted effect of over 60% in size
Conditions: KB-V1 MDR cells viability, CellTiter-Glo, 72 h; activity change, negative = cytotoxicity: at 46.1 µM (top of the series)
Outline: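 Readout: CellTiter-Glo luminescence, 10 min after addition. Cells: KB-V1 MDR subline, 72 h at 37 degrees C with compound. Analysis: corrected, normalized data fitted to concentration-effect curves.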
On the % scale 0 is the no-effect control and ±100 the full control effect; potency means the concentration at half of the fitted maximal effect.

Structure (SMILES) | activity change, negative = cytotoxicity | Potency
Cc1ccc(Cl)cc1N1CCN(C(=S)NCCc2ccccc2)CC1 | inconclusive: -31.8% [cytotoxic] | 
Cc1ccc(CNC(=O)COCc2cc(-c3ccc4c(c3)OCO4)on2)cc1 | inactive: 7.2% | 
O=C(Nc1cccc(-c2cccc(F)c2)c1)C1CCN(Cc2ccco2)CC1 | inactive: -7.21% | 
Cc1cccc(-c2noc(CNC(=O)c3ccc(C)cc3C)n2)c1 |  | inconclusive: 29.1 µM [cytotoxic, single point]
CCCCC(=O)Nc1cccc(NC(=O)c2ccc(Br)o2)c1 |  | active: 11.6 µM
CCOC(=O)c1c(NC(=O)C2c3ccccc3Oc3ccccc32)sc(C(C)=O)c1C |  | inconclusive: 29.1 µM [cytotoxic, single point]
CCCc1nn(C)c(C(=O)Nc2cccc3ccccc23)c1Cl |  | inconclusive: 20.6 µM [cytotoxic, single point]
COc1ccc(Cn2nnnc2C(c2cccs2)N2CCSCC2)cc1 (configuration not stated) | inactive: -12.7% | 
Cc1ccc2c(C(=O)CNc3nccs3)c[nH]c2c1 |  | inconclusive: 29.1 µM [cytotoxic, single point]
O=c1c2c3c(sc2nc(NCCO)n1CCc1ccccc1)CCCCC3 |  | inconclusive: 20.6 µM [cytotoxic, single point]
S=C(NC1CC1)N1CCCc2ccccc21 | inactive: 12.6% | 
FC(F)(F)c1ccc(-c2cccc3c2C2CC3CCN2)cc1 (configuration not stated) | inactive: -1.43% | 
O=C(NCC1CCCO1)C(c1cccs1)N(Cc1cccs1)C(=O)c1ccc(-c2ccccc2)[nH]1 (configuration not stated) |  | inconclusive: 29.1 µM [cytotoxic, single point]
COc1ccc(CCN(Cc2cc3cc(C)c(C)cc3nc2Cl)C(=O)C2CC2)cc1 | inactive: -3.35% | 
Cc1cc(C)n2c(SCCO)nnc2n1 | inactive: 3.16% | 
CCCCCC(=O)N[C@@H](c1ccccc1)[C@@H](O)C(=O)O[C@H]1C[C@@]2(O)[C@@H](OC(=O)c3ccccc3)C3[C@](C)(C(=O)[C@H](OC(C)=O)C(=C1C)C2(C)C)[C@@H](O)C[C@H]1OC[C@@]31OC(C)=O (some centres not stated) |  | inconclusive: 20.6 µM [cytotoxic, single point]
CCc1c(C(=O)NCCc2ccc(OC)c(OC)c2)[nH]c(C)c1C(C)=O |  | active: 14.6 µM
Cc1ccccc1CNCCCSc1nnnn1-c1ccccc1 | inactive: 6.76% | 
O=S(=O)(Nc1cccc(CCc2ccccn2)c1)c1ccc(Cl)cc1 |  | inconclusive: 14.6 µM [cytotoxic, partial curve, poor fit]
CCOC(=O)C1=C(C)Nc2ccccc2N=C1NC(=O)c1oc2ccccc2c1COC |  | inconclusive: 8.2 µM [cytotoxic, partial curve]
CCOC(=O)C1=C(CC)Nc2ccccc2N=C1NC(=O)c1ccc(OC)c(S(=O)(=O)N2CCCCC2C)c1 (configuration not stated) |  | inconclusive: 29.1 µM [rising, single point]
COc1ccccc1/C=C/[C@@H]1C[C@H]2CN(Cc3cccc(Cl)c3)C(=O)[C@]23CCCN13 |  | inconclusive: 7.31 µM [cytotoxic, partial curve]
COc1ccc(OC)c(C(=O)CSc2nnc(-c3cccs3)o2)c1 |  | inconclusive: 23.1 µM [cytotoxic, single point]
COCCn1c(Cc2ccccc2)nnc1SCC(=O)Nc1cc(C)on1 |  | inconclusive: 23.1 µM [cytotoxic, single point]

Structure (SMILES) | activity change, negative = cytotoxicity | Potency
COC(=O)c1sc(N)c(C(=O)OC)c1CSc1nnc(-c2ccccc2Cl)n1C |  | inconclusive: 10.3 µM [cytotoxic, partial curve, poor fit]
C[C@]12CC[C@@H]3c4ccc(O)cc4CC[C@H]3[C@@H]1CC[C@@H]2O |  | inconclusive: 20.6 µM [cytotoxic, partial curve, poor fit]
O=C(Nc1cccnc1)c1ccccc1Cl |  | inconclusive: 4.61 µM [rising, partial curve, poor fit]
CC(=O)c1c(O)c(C)c(O)c2c1OC1=CC(=O)/C(=C(/C)N)C(=O)C12C (configuration not stated) |  | inconclusive: 18.4 µM [cytotoxic, single point]
CC(C)c1ccc(NCCC(=O)c2ccc(Br)cc2)cc1 |  | inconclusive: 29.1 µM [rising, single point]
CCC(C(=O)OCC(=O)c1ccc(OC)cc1OC)c1ccccc1 (configuration not stated) | inactive: -2.48% | 
COC(=O)/C(C#N)=C/c1c(N2CCN(c3ccccc3)CC2)nc2c(C)cccn2c1=O | inactive: -9.58% | 
C[C@@H]1CN([C@@H](C)CO)C(=O)c2cc(C#CC3CCCCC3)cnc2O[C@@H]1CN(C)S(=O)(=O)c1ccc(F)cc1 |  | inconclusive: 20.6 µM [cytotoxic, single point]
COc1ccccc1N(C)S(=O)(=O)c1ccc(Cl)c(C(=O)NNC(=O)c2ccccc2O)c1 | inactive: 11.8% | 
COc1cc(/C=N/Nc2nc3ccccc3s2)ccc1O |  | inconclusive: 29.1 µM [cytotoxic, single point]
O=Cc1[nH]c2ccccc2c1N(C(=O)CCl)c1ccc([N+](=O)[O-])cc1 | inactive: -2.68% | 
CN1CCN(C(=O)c2ccccc2N(Cc2ccccc2)S(C)(=O)=O)CC1 | inactive: -2.84% | 
COc1ccc(NS(=O)(=O)c2ccc3ccccc3c2)c2ncccc12 | inactive: -12.9% | 
Clc1ccc2c(c1)C(C1=NCCN1)c1ccccc1CS2 (configuration not stated) |  | active: 10.3 µM
O=C(CCNS(=O)(=O)c1ccc(Br)s1)NCc1ccc2c(c1)OCO2 |  | inconclusive: 29.1 µM [rising, single point]
COc1ccc(-c2cc(-c3ccc(OC)c(OC)c3)n[nH]2)c(O)c1 |  | active: 2.59 µM
Brc1ccc2nc(-c3ccccc3)c(Cc3ccccc3)n2c1 | inactive: 9.06% | 
COc1ccc(C2C(C(=O)N3CCC(C(N)=O)CC3)CC(=O)N2c2ccc(OC)cc2)cc1 (configuration not stated) |  | inconclusive: 29.1 µM [rising, single point]
C=CCn1c(SCC(=O)N2CCN(C(=O)OCC)CC2)nc2c([nH]c3ccccc32)c1=O |  | inconclusive: 29.1 µM [rising, single point]
COc1cc(-c2nnc3sc(-c4cccs4)nn23)cc(OC)c1OC |  | inconclusive: 2.59 µM [cytotoxic, partial curve]
COc1ccc(O)c(-c2nc(N)nc(N)n2)c1 | inactive: -2.68% | 
CCc1nnc(NC(=O)[C@@H](NC(=O)c2cccc(C)c2)C(C)C)s1 |  | inconclusive: 14.6 µM [cytotoxic, partial curve]
COc1ccc(NC(=O)C(C)n2nc(C)c3c(C)n(-c4ccccc4)nc3c2=O)cc1Cl (configuration not stated) | inactive: 7.08% | 
CCc1ccc(C(=O)OCC(=O)N(CCOC)c2c(N)n(Cc3ccccc3)c(=O)[nH]c2=O)cc1 | inactive: 12.6% | 

Structure (SMILES) | activity change, negative = cytotoxicity | Potency
Cc1ccc(C)c(OCCCn2c(-c3ccc(Cl)cc3)nc3ccccc3c2=O)c1 |  | inconclusive: 29.1 µM [rising, single point]
Cc1ccc2nc(CSc3nnc(-c4ccco4)o3)cc(=O)n2c1 | inactive: 7.45% | 
Cc1cccc(-n2ncc3c(N4CCCc5ccccc54)ncnc32)c1 |  | active: 8.2 µM
C=CCn1cc(C(=O)NCc2ccco2)c(=O)c2cc(S(=O)(=O)N3CCCCCC3)ccc21 |  | inconclusive: 10 µM [cytotoxic, partial curve]
O=C(COC(=O)Cn1cnc2ccccc21)Nc1ccccc1C(F)(F)F | inactive: 6.38% | 
CCOc1cccc(CNCCO)c1OCc1ccc(Cl)cc1Cl | inactive: 0% | 
CCOC(=O)N1CCN(S(=O)(=O)c2ccc3c4c(cccc24)C(=O)N3)CC1 |  | inconclusive: 25.9 µM [cytotoxic, single point]
COc1ccc(C[C@H]2CN3C(=NC[C@H]3C)N2CCNC(=O)CCC2CCCCC2)cc1 |  | inconclusive: 23.1 µM [cytotoxic, single point]
CCC(C)NCCCOc1ccc(Cl)cc1C(C)(C)C (configuration not stated) |  | inconclusive: 16.4 µM [cytotoxic, partial curve, poor fit]
COc1cccc(C(=O)Nc2cc([N+](=O)[O-])ccc2N2CCN(C)CC2)c1 |  | inconclusive: 13 µM [cytotoxic, partial curve]
Cc1ccc(C)c(OCCCCN2CCCCC2)c1 |  | inconclusive: 14.6 µM [cytotoxic, partial curve, poor fit]
CSc1ccc(CN2CCC(C)(Oc3cccc(F)c3)C2)cc1 (configuration not stated) | inactive: 3.24% | 
COc1cccc(C2C(C#N)=C(N)Oc3c2oc(CO)cc3=O)c1OC (configuration not stated) |  | inconclusive: 23.1 µM [rising, single point]
Cc1ccc(C(=O)NN2C(=O)C3C4C=CC(C5CC45)C3C2=O)cc1 (configuration not stated) |  | inconclusive: 25.9 µM [rising, partial curve, poor fit]
COCCCN1C(=O)C(CC(=O)NCc2cccs2)CC(C(=O)N(C)C)=C1C (configuration not stated) | inactive: 14.4% | 
N#Cc1nc(Cc2cccc3ccccc23)oc1NCCCN1CCOCC1 |  | inconclusive: 11.6 µM [cytotoxic, partial curve]
Cc1ccnn1Cc1cc(C(=O)O)c2ccccc2n1 |  | inconclusive: 29.1 µM [rising, single point]
CCOC(=O)c1cc(S(=O)(=O)NC2CCC(C)CC2)cn1C (configuration not stated) | inactive: -10.9% | 
NC(=O)CSc1nccn1Cc1ccc(Cl)cc1 | inactive: -14.4% | 
CCOC(=O)N1CCC(N2CCN(c3cc(C)ccc3C)CC2)CC1 |  | active: 23.1 µM
COc1ccc(CC(=O)Nc2nc(-c3ccc(F)c(F)c3)cs2)cc1OC |  | inconclusive: 2.59 µM [cytotoxic, full curve]
CC(C)c1ccc(C(O)P(=O)(OC2CCCCC2)OC2CCCCC2)cc1 (configuration not stated) |  | inconclusive: 23.1 µM [cytotoxic, single point]
COc1ccc(N2CCN(C(=O)c3ccc(Br)cc3)CC2)c([N+](=O)[O-])c1 |  | inconclusive: 10.3 µM [cytotoxic, partial curve]
CC(C)COC(=O)Nc1nnc(Cc2ccccc2)s1 | inactive: -29% | 

Ordered by formula weight (rising): 22 of the compounds above.
Structure (SMILES) | activity change, negative = cytotoxicity | Potency
Cc1ccc(C)c(OCCCCN2CCCCC2)c1 |  | inconclusive: 14.6 µM [cytotoxic, partial curve, poor fit]
Cc1ccnn1Cc1cc(C(=O)O)c2ccccc2n1 |  | inconclusive: 29.1 µM [rising, single point]
NC(=O)CSc1nccn1Cc1ccc(Cl)cc1 | inactive: -14.4% | 
CC(C)COC(=O)Nc1nnc(Cc2ccccc2)s1 | inactive: -29% | 
CCC(C)NCCCOc1ccc(Cl)cc1C(C)(C)C (configuration not stated) |  | inconclusive: 16.4 µM [cytotoxic, partial curve, poor fit]
Cc1ccc(C(=O)NN2C(=O)C3C4C=CC(C5CC45)C3C2=O)cc1 (configuration not stated) |  | inconclusive: 25.9 µM [rising, partial curve, poor fit]
CCOC(=O)c1cc(S(=O)(=O)NC2CCC(C)CC2)cn1C (configuration not stated) | inactive: -10.9% | 
CSc1ccc(CN2CCC(C)(Oc3cccc(F)c3)C2)cc1 (configuration not stated) | inactive: 3.24% | 
Cc1ccc2nc(CSc3nnc(-c4ccco4)o3)cc(=O)n2c1 | inactive: 7.45% | 
Cc1cccc(-n2ncc3c(N4CCCc5ccccc54)ncnc32)c1 |  | active: 8.2 µM
CCOC(=O)N1CCC(N2CCN(c3cc(C)ccc3C)CC2)CC1 |  | active: 23.1 µM
COc1cccc(C2C(C#N)=C(N)Oc3c2oc(CO)cc3=O)c1OC (configuration not stated) |  | inconclusive: 23.1 µM [rising, single point]
COc1cccc(C(=O)Nc2cc([N+](=O)[O-])ccc2N2CCN(C)CC2)c1 |  | inconclusive: 13 µM [cytotoxic, partial curve]
N#Cc1nc(Cc2cccc3ccccc23)oc1NCCCN1CCOCC1 |  | inconclusive: 11.6 µM [cytotoxic, partial curve]
O=C(COC(=O)Cn1cnc2ccccc21)Nc1ccccc1C(F)(F)F | inactive: 6.38% | 
CCOC(=O)N1CCN(S(=O)(=O)c2ccc3c4c(cccc24)C(=O)N3)CC1 |  | inconclusive: 25.9 µM [cytotoxic, single point]
CC(C)c1ccc(C(O)P(=O)(OC2CCCCC2)OC2CCCCC2)cc1 (configuration not stated) |  | inconclusive: 23.1 µM [cytotoxic, single point]
COCCCN1C(=O)C(CC(=O)NCc2cccs2)CC(C(=O)N(C)C)=C1C (configuration not stated) | inactive: 14.4% | 
COc1ccc(N2CCN(C(=O)c3ccc(Br)cc3)CC2)c([N+](=O)[O-])c1 |  | inconclusive: 10.3 µM [cytotoxic, partial curve]
COc1ccc(C[C@H]2CN3C(=NC[C@H]3C)N2CCNC(=O)CCC2CCCCC2)cc1 |  | inconclusive: 23.1 µM [cytotoxic, single point]
C=CCn1cc(C(=O)NCc2ccco2)c(=O)c2cc(S(=O)(=O)N3CCCCCC3)ccc21 |  | inconclusive: 10 µM [cytotoxic, partial curve]
CCc1ccc(C(=O)OCC(=O)N(CCOC)c2c(N)n(Cc3ccccc3)c(=O)[nH]c2=O)cc1 | inactive: 12.6% | 
